In publication PMC3906161:
These are yes or no findings as the source states them, for the method shown. In cells and extracts the contact can be indirect. Some binding calls cover weakened binding; strength is not graded here.

Protein sequences, listed by entry. Tags and fused reporters are not part of them.
UniProt Q6DIC0: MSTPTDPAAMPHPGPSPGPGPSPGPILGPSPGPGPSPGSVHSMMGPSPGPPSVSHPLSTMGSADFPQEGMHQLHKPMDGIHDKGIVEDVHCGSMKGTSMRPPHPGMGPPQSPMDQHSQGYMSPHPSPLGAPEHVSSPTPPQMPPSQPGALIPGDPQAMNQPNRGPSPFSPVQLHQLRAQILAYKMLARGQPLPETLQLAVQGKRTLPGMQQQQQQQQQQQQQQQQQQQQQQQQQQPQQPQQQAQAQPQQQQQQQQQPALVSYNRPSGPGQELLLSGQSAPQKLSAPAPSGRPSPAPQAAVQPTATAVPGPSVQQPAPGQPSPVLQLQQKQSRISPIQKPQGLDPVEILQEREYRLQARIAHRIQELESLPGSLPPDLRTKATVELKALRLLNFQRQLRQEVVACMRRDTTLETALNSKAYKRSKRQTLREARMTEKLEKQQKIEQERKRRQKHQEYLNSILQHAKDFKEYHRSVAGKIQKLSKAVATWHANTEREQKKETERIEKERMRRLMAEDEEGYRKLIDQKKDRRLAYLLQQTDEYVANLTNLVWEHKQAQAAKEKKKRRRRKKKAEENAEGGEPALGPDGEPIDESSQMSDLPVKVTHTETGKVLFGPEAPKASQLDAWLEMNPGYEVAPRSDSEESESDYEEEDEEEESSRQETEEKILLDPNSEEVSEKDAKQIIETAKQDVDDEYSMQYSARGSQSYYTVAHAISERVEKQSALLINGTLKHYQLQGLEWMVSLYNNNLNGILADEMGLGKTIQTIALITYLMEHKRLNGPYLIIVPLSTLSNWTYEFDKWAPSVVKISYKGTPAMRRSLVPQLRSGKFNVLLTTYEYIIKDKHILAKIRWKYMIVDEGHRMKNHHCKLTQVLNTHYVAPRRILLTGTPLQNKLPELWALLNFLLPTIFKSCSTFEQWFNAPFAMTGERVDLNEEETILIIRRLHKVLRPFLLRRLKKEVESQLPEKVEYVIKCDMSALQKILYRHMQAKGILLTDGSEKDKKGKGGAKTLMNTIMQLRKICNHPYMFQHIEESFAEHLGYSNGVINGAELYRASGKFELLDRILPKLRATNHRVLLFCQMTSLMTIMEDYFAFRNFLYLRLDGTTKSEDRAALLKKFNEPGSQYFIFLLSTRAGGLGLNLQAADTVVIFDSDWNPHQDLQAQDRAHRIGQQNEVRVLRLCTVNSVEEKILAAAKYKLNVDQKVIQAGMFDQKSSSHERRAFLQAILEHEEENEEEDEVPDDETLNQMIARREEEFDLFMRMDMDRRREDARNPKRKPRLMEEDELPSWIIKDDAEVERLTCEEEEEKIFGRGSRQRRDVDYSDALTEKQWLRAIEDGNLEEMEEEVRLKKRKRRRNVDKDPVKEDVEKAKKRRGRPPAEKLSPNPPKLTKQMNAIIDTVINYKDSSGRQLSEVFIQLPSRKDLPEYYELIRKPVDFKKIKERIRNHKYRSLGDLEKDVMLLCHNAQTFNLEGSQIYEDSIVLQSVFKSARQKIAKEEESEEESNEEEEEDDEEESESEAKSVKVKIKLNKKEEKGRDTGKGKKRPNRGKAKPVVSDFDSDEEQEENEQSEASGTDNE

T1: polypyrimidine tract-binding protein (PTB)-associated splicing factor (PSF) (mouse (endogenous in mouse brain)) (UniProt Q8VIJ6)
T1 sequence: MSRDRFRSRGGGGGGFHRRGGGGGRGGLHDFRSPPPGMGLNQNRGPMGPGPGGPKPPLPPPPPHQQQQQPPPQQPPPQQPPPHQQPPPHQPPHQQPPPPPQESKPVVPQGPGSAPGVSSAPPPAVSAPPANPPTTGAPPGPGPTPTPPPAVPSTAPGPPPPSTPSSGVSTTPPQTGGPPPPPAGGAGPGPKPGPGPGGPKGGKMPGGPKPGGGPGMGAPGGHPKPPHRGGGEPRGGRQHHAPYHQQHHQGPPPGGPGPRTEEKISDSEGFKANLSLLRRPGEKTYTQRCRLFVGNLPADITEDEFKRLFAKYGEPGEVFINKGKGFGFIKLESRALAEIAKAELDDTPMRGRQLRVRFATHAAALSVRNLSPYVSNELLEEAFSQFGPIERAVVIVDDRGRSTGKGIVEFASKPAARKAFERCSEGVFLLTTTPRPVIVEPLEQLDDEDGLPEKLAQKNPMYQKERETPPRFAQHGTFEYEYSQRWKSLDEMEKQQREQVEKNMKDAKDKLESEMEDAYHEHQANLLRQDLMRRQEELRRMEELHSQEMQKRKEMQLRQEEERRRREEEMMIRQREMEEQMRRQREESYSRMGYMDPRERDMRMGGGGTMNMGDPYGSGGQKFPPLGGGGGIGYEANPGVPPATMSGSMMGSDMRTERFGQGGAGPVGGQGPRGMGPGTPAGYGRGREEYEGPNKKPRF

T2: Activity-dependent neuroprotective protein (ADNP) (mouse (endogenous in mouse brain)) (UniProt Q9Z103)
T2 sequence: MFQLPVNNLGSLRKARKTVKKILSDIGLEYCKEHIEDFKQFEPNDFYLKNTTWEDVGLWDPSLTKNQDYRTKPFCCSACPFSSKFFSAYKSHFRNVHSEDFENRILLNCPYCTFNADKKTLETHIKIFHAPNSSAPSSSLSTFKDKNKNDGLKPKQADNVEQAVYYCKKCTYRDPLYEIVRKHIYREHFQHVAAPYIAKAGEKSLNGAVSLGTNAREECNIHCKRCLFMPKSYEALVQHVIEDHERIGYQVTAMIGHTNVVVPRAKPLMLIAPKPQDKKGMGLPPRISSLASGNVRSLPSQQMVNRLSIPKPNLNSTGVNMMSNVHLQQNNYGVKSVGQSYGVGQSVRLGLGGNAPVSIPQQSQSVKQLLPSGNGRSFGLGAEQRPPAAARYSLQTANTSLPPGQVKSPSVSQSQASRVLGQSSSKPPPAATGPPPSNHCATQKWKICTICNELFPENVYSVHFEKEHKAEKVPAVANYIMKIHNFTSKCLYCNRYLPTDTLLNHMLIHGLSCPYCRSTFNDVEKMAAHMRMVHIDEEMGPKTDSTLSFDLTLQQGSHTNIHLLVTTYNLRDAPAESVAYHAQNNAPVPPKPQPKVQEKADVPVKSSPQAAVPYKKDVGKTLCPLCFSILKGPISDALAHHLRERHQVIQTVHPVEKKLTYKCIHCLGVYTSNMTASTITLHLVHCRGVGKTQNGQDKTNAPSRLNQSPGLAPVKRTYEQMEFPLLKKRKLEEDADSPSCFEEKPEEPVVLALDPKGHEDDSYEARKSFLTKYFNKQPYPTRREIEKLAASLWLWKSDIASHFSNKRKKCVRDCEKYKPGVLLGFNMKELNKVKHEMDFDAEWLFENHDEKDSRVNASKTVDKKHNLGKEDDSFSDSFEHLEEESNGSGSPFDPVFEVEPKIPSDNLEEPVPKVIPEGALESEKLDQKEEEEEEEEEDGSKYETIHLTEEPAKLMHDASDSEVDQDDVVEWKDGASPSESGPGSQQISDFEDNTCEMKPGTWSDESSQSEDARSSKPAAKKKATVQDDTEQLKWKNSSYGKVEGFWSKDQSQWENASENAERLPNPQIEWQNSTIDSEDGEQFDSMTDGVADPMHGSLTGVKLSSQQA


Tests used:
[1] = biological target: Brahma (Brm) (mouse (endogenous in mouse brain)) (UniProt Q6DIC0); assay: co-IP; nuclear-enriched fraction of thalamus and subthalamic nucleus of 11-month-old C57BL/129 male mice, extraction buffer with 150 mM NaCl, rabbit anti-hBrm/hSNF2α, Protein A/G PLUS-Agarose beads, 4°C; reducing sample buffer; blots for ADNP and Brm
[2] = biological target: T1, polypyrimidine tract-binding protein (PTB)-associated splicing factor (PSF) (mouse (endogenous in mouse brain)); assay: co-IP; Co-IP-cross-link kit (Pierce), antibody (PSF or ADNP) cross-linked to A/G agarose with DSS; 500 µg nuclear-enriched fraction of cerebellum of 8-month-old C57BL/129 male mice (thalamus and subthalamic nuclei for the PSF IP blotted for ADNP), 150 mM NaCl, 16 hours, 4°C; non-reducing loading
[3] = biological target: Brahma (Brm) (mouse (endogenous in mouse brain)) (UniProt Q6DIC0); assay: co-IP; Co-IP-cross-link kit with ADNP, PSF and Brm antibodies; 500 µg nuclear cerebral cortex proteins (NE-PER kit) of 3-month-old male ADNP+/+ and ADNP+/− mice; two consecutive elutions
[4] = biological target: T1, polypyrimidine tract-binding protein (PTB)-associated splicing factor (PSF) (mouse (endogenous in mouse brain)); assay: as above
[5] = biological target: T2, Activity-dependent neuroprotective protein (ADNP) (mouse (endogenous in mouse brain)); assay: as above

| Binder | binding [1] | binding [2] | binding [3] | binding [4] | binding [5] |
| --- | --- | --- | --- | --- | --- |
| Activity-dependent neuroprotective protein (ADNP) (protein, UniProt Q9Z103 1-1108) MFQLPVNNLGSLRKARKTVKKILSDIGLEYCKEHIEDFKQFEPNDFYLKNTTWEDVGLWDPSLTKNQDYRTKPFCCSACPFSSKFFSAYKSHFRNVHSEDFENRILLNCPYCTFNADKKTLETHIKIFHAPNSSAPSSSLSTFKDKNKNDGLKPKQADNVEQAVYYCKKCTYRDPLYEIVRKHIYREHFQHVAAPYIAKAGEKSLNGAVSLGTNAREECNIHCKRCLFMPKSYEALVQHVIEDHERIGYQVTAMIGHTNVVVPRAKPLMLIAPKPQDKKGMGLPPRISSLASGNVRSLPSQQMVNRLSIPKPNLNSTGVNMMSNVHLQQNNYGVKSVGQSYGVGQSVRLGLGGNAPVSIPQQSQSVKQLLPSGNGRSFGLGAEQRPPAAARYSLQTANTSLPPGQVKSPSVSQSQASRVLGQSSSKPPPAATGPPPSNHCATQKWKICTICNELFPENVYSVHFEKEHKAEKVPAVANYIMKIHNFTSKCLYCNRYLPTDTLLNHMLIHGLSCPYCRSTFNDVEKMAAHMRMVHIDEEMGPKTDSTLSFDLTLQQGSHTNIHLLVTTYNLRDAPAESVAYHAQNNAPVPPKPQPKVQEKADVPVKSSPQAAVPYKKDVGKTLCPLCFSILKGPISDALAHHLRERHQVIQTVHPVEKKLTYKCIHCLGVYTSNMTASTITLHLVHCRGVGKTQNGQDKTNAPSRLNQSPGLAPVKRTYEQMEFPLLKKRKLEEDADSPSCFEEKPEEPVVLALDPKGHEDDSYEARKSFLTKYFNKQPYPTRREIEKLAASLWLWKSDIASHFSNKRKKCVRDCEKYKPGVLLGFNMKELNKVKHEMDFDAEWLFENHDEKDSRVNASKTVDKKHNLGKEDDSFSDSFEHLEEESNGSGSPFDPVFEVEPKIPSDNLEEPVPKVIPEGALESEKLDQKEEEEEEEEEDGSKYETIHLTEEPAKLMHDASDSEVDQDDVVEWKDGASPSESGPGSQQISDFEDNTCEMKPGTWSDESSQSEDARSSKPAAKKKATVQDDTEQLKWKNSSYGKVEGFWSKDQSQWENASENAERLPNPQIEWQNSTIDSEDGEQFDSMTDGVADPMHGSLTGVKLSSQQA | binds | binds | binds | binds | – |
| polypyrimidine tract-binding protein (PTB)-associated splicing factor (PSF) (protein, UniProt Q8VIJ6 1-699) MSRDRFRSRGGGGGGFHRRGGGGGRGGLHDFRSPPPGMGLNQNRGPMGPGPGGPKPPLPPPPPHQQQQQPPPQQPPPQQPPPHQQPPPHQPPHQQPPPPPQESKPVVPQGPGSAPGVSSAPPPAVSAPPANPPTTGAPPGPGPTPTPPPAVPSTAPGPPPPSTPSSGVSTTPPQTGGPPPPPAGGAGPGPKPGPGPGGPKGGKMPGGPKPGGGPGMGAPGGHPKPPHRGGGEPRGGRQHHAPYHQQHHQGPPPGGPGPRTEEKISDSEGFKANLSLLRRPGEKTYTQRCRLFVGNLPADITEDEFKRLFAKYGEPGEVFINKGKGFGFIKLESRALAEIAKAELDDTPMRGRQLRVRFATHAAALSVRNLSPYVSNELLEEAFSQFGPIERAVVIVDDRGRSTGKGIVEFASKPAARKAFERCSEGVFLLTTTPRPVIVEPLEQLDDEDGLPEKLAQKNPMYQKERETPPRFAQHGTFEYEYSQRWKSLDEMEKQQREQVEKNMKDAKDKLESEMEDAYHEHQANLLRQDLMRRQEELRRMEELHSQEMQKRKEMQLRQEEERRRREEEMMIRQREMEEQMRRQREESYSRMGYMDPRERDMRMGGGGTMNMGDPYGSGGQKFPPLGGGGGIGYEANPGVPPATMSGSMMGSDMRTERFGQGGAGPVGGQGPRGMGPGTPAGYGRGREEYEGPNKKPRF | – | – | – | – | binds |
